Our source for the IC50 values is patent US20260062443A1 (ALEXION PHARMACEUTICALS, INC., priority 2022, published 2026).

By UniProt entry, the sequences of proteins in these tests, tags left out. Residues count along the entry.
UniProt P09871, 438-688 limits assumed: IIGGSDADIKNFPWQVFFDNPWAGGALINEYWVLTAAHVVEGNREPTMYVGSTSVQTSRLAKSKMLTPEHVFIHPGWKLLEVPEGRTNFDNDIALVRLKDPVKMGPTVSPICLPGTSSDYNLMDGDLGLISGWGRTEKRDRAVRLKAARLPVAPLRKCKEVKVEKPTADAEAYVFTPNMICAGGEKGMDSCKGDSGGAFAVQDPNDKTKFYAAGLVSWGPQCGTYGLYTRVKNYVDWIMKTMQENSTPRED
UniProt P09871, 16-437 partner limits assumed: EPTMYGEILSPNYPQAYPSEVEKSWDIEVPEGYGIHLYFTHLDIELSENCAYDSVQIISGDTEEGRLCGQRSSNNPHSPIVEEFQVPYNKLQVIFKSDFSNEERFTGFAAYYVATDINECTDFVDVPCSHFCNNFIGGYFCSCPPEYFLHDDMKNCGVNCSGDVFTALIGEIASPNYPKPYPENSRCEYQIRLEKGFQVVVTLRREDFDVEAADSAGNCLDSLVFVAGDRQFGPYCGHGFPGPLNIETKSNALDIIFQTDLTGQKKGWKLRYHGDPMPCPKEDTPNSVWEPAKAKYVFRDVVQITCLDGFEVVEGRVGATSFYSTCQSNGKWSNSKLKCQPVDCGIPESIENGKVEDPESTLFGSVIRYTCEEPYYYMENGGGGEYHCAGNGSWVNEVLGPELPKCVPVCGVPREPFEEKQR

SMILES strings stand for the structures. The structures given here were assigned with low confidence; some may be wrong.

The IC50 is the concentration at which inhibition is half-maximal.

For this assay, the target named is Human complement C1s enzyme (Homo sapiens, UniProt P09871). Nature of the assay: Human C1s enzyme assay. It counts as biochemical. Particulars: read-out: IC50 (Stars), C1s Inhibiting Activity; human complement C1s enzyme 1.16 nM, substrate Z-L-Lys-SBzl 100 μM, 5 min preincubation. The protocol:
Other standard complement assays are also available.
Human complement C1s enzyme (purified from human serum, Complement Technology, Inc.) at 1.16 nM final concentration was incubated with test compound at various concentrations for 5 min at room temperature in 50 mM Tris, 1 M NaCl, pH 7.5. A synthetic substrate Z-L-Lys-SBzl and DTNB (Ellman's reagent) were added to final concentrations of 100 μM each. Absorbance at 405 nm (A405) was recorded at 30 second intervals for 30 min using a microplate spectrophotometer. IC50 values were calculated by nonlinear regression of complement C1 s reaction rates as a function of test compound concentration.
ND indicates a compound for which the IC50 value is not determined.
With `C[C@@H](NC(=O)[C@@H]1C[C@@H](OC(F)F)CN1C(=O)CNC(=O)c1ccc2c(c1)Oc1ccccc1S2)c1cc2cnccc2[nH]1`, the half-maximal inhibitory concentration (IC50) was under 100 nM. The result for `C[C@@H](NC(=O)[C@@H]1C[C@@H](OC(F)F)CN1C(=O)CNC(=O)c1ccc(Oc2ccc(F)cc2)cc1)c1cc2cnccc2[nH]1` reads under 100 nM; that for `C[C@@H](NC(=O)[C@@H]1C[C@@H](OC(F)F)CN1C(=O)CNC(=O)c1ccc(Oc2ccccc2)cn1)c1cc2cnccc2[nH]1`, 100 to 1000 nM; that for `C[C@@H](NC(=O)[C@@H]1CC2(CN1C(=O)CNC(=O)c1ccc(Oc3ccc(F)cc3)cc1)OCCO2)c1cc2cnccc2[nH]1`, 100 to 1000 nM. Turning to `C[C@@]12C[C@@H]1N(C(=O)CNC(=O)c1ccc(Oc3ccc(F)cc3)cc1)[C@H](C(=O)N[C@H](CO)c1cc3cnccc3[nH]1)C2`, the half-maximal inhibitory concentration (IC50) lay within 100 to 1000 nM. In the case of `C[C@@H](NC(=O)[C@@H]1C[C@]2(C)C[C@@H]2N1C(=O)CNC(=O)c1ccc(Oc2ccc(F)cc2)cc1)c1cc2cnccc2[nH]1`, the half-inhibitory concentration (IC50) was under 100 nM. Turning to `Cc1ccc(Oc2ccc(C(=O)NCC(=O)N3C[C@H](OC(F)F)C[C@H]3C(=O)N[C@H](C)c3cc4cnccc4[nH]3)cc2)cc1`, the IC50 was under 100 nM. With `C[C@@H](NC(=O)[C@@H]1C[C@]2(C)C[C@@H]2N1C(=O)CNC(=O)c1cccc(Oc2ccc(F)cc2)c1)c1cc2cnccc2[nH]1`, the half-maximal inhibitory concentration (IC50) was under 100 nM. For the compound `O=C(NCC(=O)N1C[C@H](OC(F)F)C[C@H]1C(=O)NCc1cc2cnccc2s1)c1ccc2c(c1)Oc1ccccc1S2` [Compound 141, (2S,4R)-4-(difluoromethoxy)-1-((phenoxathiine-3-carbonyl)glycyl)-N-(thieno[3,2-c]pyridin-2-ylmethyl)pyrrolidine-2-carboxamide], the half-maximal inhibitory concentration (IC50) was under 100 nM.
